In article PMC2824750 one finds binding data, which are given here for 2 molecules.

Chains of the proteins cited; added tags and fusions are not shown. Lines headed by an entry give the natural chain unless they say otherwise; changes in a name come on top. A line that says so, or that is headed by a name, gives the form on record, which may keep a tag or linker.
in vitro translated 35S-labelled Drosophila Dnmt2 (TNT-dDnmt2) (Q9VKB3, form named): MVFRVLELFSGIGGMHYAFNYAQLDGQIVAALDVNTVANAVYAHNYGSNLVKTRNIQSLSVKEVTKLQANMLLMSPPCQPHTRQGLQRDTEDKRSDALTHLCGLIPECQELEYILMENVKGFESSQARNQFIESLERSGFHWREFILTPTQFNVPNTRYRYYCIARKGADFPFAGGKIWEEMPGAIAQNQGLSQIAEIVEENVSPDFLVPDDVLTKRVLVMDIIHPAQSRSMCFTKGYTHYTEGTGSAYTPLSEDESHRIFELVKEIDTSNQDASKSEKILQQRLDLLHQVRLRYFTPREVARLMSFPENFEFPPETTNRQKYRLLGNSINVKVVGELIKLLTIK

In the assay the target is T1, GST-Ehenolase (E. histolytica) (UniProt P51555).
T1 sequence: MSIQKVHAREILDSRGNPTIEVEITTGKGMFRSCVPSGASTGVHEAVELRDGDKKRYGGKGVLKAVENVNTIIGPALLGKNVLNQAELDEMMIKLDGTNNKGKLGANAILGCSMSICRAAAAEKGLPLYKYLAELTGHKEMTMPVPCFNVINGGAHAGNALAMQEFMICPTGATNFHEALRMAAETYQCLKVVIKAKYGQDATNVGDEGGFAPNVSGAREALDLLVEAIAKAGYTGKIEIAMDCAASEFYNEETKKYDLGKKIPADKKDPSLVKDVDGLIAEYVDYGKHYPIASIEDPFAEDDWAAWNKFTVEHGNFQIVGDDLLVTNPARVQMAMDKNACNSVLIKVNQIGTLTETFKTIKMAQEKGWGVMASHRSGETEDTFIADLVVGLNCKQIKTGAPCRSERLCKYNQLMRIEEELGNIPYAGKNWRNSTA
In words: pull-down; glutathione beads coated with GST-Enolase or GST (20–50 µg) incubated with in vitro translated 35S-methionine-labelled protein (15 µl TNT reaction) in 20 mM Hepes pH 7.9, 100 mM NaCl, 1 mM DTT, 6 mM MgCl2, 20% glycerol, 1% Nonidet P40, 0.5 mM EDTA, one hour at room temperature; autoradiography; only the target purified.

No constants are given. Whether binding was seen depends on the method and setting. Binding seen in cells or lysates may run through a third protein. Some entries that bind do so weakly or less than the wild type. Tags and fused reporters may be left off the sequences shown.

Take “in vitro translated 35S-labelled Drosophila Dnmt2 (TNT-dDnmt2) (from UniProt Q9VKB3 1-345) (enzyme)”: the binding entry is “binds”.

B1: in vitro translated 35S-labelled human Dnmt2 (TNT-hDnmt2) (enzyme, UniProt O14717-1 1-391)
chain: MEPLRVLELYSGVGGMHHALRESCIPAQVVAAIDVNTVANEVYKYNFPHTQLLAKTIEGITLEEFDRLSFDMILMSPPCQPFTRIGRQGDMTDSRTNSFLHILDILPRLQKLPKYILLENVKGFEVSSTRDLLIQTIENCGFQYQEFLLSPTSLGIPNSRLRYFLIAKLQSEPLPFQAPGQVLMEFPKIESVHPQKYAMDVENKIQEKNVEPNISFDGSIQCSGKDAILFKLETAEEIHRKNQQDSDLSVKMLKDFLEDDTDVNQYLLPPKSLLRYALLLDIVQPTCRRSVCFTKGYGSYIEGTGSVLQTAEDVQVENIYKSLTNLSQEEQITKLLILKLRYFTPKEIANLLGFPPEFGFPEKITVKQRYRLLGNSLNVHVVAKLIKILYE
modifications: 35S labelled
For the molecule B1, the binding entry is listed as “binds”.
